Some test systems named below: OR4K13 clone 1266; OR4K14 clone 1276; OR4K17 clone 1319; OR4K17 clone 1420; OR4K2 clone 1258; OR4K3 clone 1259; OR4K5 clone 1261; OR4L1 R52S clone 1265; OR4M1 clone 1559.
What all share (assay): odorant receptor activation (CRE luciferase / Renilla) (fold of no-odor wells); higher = more activation
Holding throughout (settings): 100 µM

For test [1], the system named is OR4K15 N65S/E88V/S93A/A231E/L280P/I286M clone 1566.

Several values for one entry are separate records, joined by “and”; a condition that tells them apart may be missing. Equal entries are not always repeated. The list shows a part of the results. Single wells; the ratio to wells without odorant was worked out here, and repeats agree poorly.

For `CCCCOC(C)=O` [butyl acetate], the odorant receptor activation with OR4K13 clone 1266 was 0.769; in the test with OR4K14 clone 1276, 0.821; in [1] it was 0.763; in the test on OR4K17 clone 1319, 0.879; with OR4K17 clone 1420, 0.217; with OR4K2 clone 1258 it was 0.73. The odorant receptor activation in the test on OR4K3 clone 1259 worked out at 0.675; in the test with OR4K5 clone 1261 it was 0.924; in the test on OR4L1 R52S clone 1265, 0.867; with OR4M1 clone 1559, 1.13.

As for `CCOc1cc(C=O)ccc1O` [ethyl vanillin], the odorant receptor activation in the test on OR4K13 clone 1266 was 1.35 and 1.16; in the test with OR4K14 clone 1276, 0.823 and 1.04; in test [1], 1.02; in the test on OR4K17 clone 1319, 1.28 and 1.16; in the test with OR4K17 clone 1420, 1.05 and 1.3; in the test on OR4K2 clone 1258, 0.989 and 0.988. The odorant receptor activation in the test on OR4K3 clone 1259 is 1.62 and 1.08; in the test with OR4K5 clone 1261 it was 1.52 and 0.867; with OR4M1 clone 1559 it was 0.888.

For the compound `CCC(C)=O` [2-butanone], the odorant receptor activation came to 1.11 in the test on OR4K13 clone 1266; 0.801 in the test on OR4K14 clone 1276; 1.03 in [1]; 0.903 in the test with OR4K17 clone 1319; 0.64 in the test on OR4K17 clone 1420; 1.49 in the test on OR4K2 clone 1258. For the same compound, the odorant receptor activation in the test on OR4K3 clone 1259 amounted to 0.904; in the test on OR4K5 clone 1261, 1.78; in the test on OR4L1 R52S clone 1265, 1.53; in the test on OR4M1 clone 1559, 0.972.

As for `CS` [methanethiol], the odorant receptor activation was determined as 0.862 with OR4K13 clone 1266; 0.995 in the test with OR4K14 clone 1276; 0.875 in [1]; 0.816 with OR4K17 clone 1319; 0.897 with OR4K17 clone 1420; 0.715 in the test with OR4K2 clone 1258. The odorant receptor activation came out at 0.944 with OR4K3 clone 1259, 0.973 with OR4K5 clone 1261, 0.933 with OR4L1 R52S clone 1265 and 1.04 in the test on OR4M1 clone 1559.
